Measurements: publication PMC3169599
Results are given in words; binding and its absence hold for the method and conditions named. In cells and extracts the contact can be indirect. A yes stands for co-enrichment or nearness to the bait. Other partners may have been found.

By UniProt entry, the sequences of proteins in these tests, tags left out.
UniProt P51810: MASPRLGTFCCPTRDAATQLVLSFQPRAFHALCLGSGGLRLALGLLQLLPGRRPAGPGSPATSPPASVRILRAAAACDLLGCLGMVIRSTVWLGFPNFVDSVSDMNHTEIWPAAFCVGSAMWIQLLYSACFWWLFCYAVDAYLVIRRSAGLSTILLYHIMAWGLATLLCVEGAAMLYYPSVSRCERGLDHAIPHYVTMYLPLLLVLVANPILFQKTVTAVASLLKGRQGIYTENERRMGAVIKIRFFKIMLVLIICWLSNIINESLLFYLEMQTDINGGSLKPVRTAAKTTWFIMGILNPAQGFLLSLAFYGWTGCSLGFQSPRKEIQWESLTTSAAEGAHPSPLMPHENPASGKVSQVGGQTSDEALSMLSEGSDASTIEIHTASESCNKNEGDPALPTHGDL
UniProt P08754: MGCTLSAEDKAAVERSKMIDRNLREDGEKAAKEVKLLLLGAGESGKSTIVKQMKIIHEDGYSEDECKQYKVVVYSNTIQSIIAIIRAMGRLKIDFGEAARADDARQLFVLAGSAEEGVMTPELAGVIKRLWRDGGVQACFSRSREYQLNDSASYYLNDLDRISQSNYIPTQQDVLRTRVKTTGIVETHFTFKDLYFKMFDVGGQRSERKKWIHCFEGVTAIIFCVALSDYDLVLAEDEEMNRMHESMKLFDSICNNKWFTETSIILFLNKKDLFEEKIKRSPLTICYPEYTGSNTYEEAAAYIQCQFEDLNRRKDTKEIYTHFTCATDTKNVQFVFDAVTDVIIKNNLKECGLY

Target: OA1 (human ocular albinism type 1 G-protein-coupled receptor), endogenous in RPE (human (endogenous in RPE)) (UniProt P51810)
Test: affinity purification with mass spectrometry; adult human RPE lysate immunoprecipitated with anti-OA1; SDS-PAGE, Coomassie bands at 39-41 kDa and 45-48 kDa excised, trypsin digestion, nLC-MSMS, Mascot search

## Gαi3 (guanine nucleotide binding protein, alpha inhibiting activity polypeptide 3), endogenous in human RPE (from UniProt P08754 1-354)
  binding: binds
